Results on 13 compounds are retold here after article PMC9655874, “Analysis of Volatile Secondary Metabolites in Ocimum basilicum Cell Suspensions: Inhibition, In Silico Molecular Docking, and an ADMET Analysis against Proteolytic Enzymes of Rhynchophorus ferrugineus” (Plants, 2022).

The test system of one series is R. ferrugineus adults. Format: in vivo. To be noted: value ± standard error. The method, then: (§1) Cells were suspended in the methanolic extract at serially increasing concentrations for 40 days. To dilute the compounds, TritonX-100 (0.1%) was added to acetone after the chemicals were dissolved. Adults or larvae of R. ferrugineus were purchased. They were then cultured using long lengths of sugar cane stem. The extracts’ anti-larvae action was assessed by applying topically to larvae and keeping them at 4–5 °C for 5 min. Utilizing a manually controlled micro-applicator, each larva had extract injected into its dorsum in three separate 10 µL doses using a 50-ll micro-syringe from Hertfordshire, UK’s Burkard Manufacturing Co., Ltd. (MS-N50; Shizuoka, Japan’s Ito Corp.). Five larvae in a box with three replications were fed on portions of long sugarcane stem measuring 10 cm. […] The sugarcane stem’s ten-centimeter-long portions cut into equal longitudinal halves were used to measure the antifeedant activity against adults. Long sections of sugarcane stem with a surface area of approximately 32.2 cm^2 were dried in air at room temperature, assuming a dipping time of 10 s and an initial serial concentration of (10 mL). Each treated object remained in a plastic container. Each box included an additional pair (male and female). Each therapy was administered ten times. In total, 24-, 48-, 72-, and 96-h feeding observations were assessed.
(§2) Statistics and probit analysis were performed using SPSS 25.0, as mentioned by Finney. To sum up, all numerical predictions of toxicity variables and findings were presented as the mean ± SE. We regressed mortality and translated the resulting dosage to an LC50 value (µg/mL). […] Enzyme activity data were analyzed using an ANOVA. Means were separated using the SNK (Student–Newman–Keuls) test, and deviations at the p ˂ 0.05 level were considered noteworthy.

In series [1] the test system is R. ferrugineus 4th larvae. Put plainly: Topical application (contact insecticide) to fourth instar larvae. Format: in vivo, Rhynchophorus ferrugineus. The following applies: value ± standard error. The method, then: as §1, §2

Take `CC12CCC(CC1)C(C)(C)O2` [1,8-cineole]: in the series on R. ferrugineus adults, the “Slope (probit), adult” value is on record as 2.69 ± 0.19. In addition, the “Slope (probit), 4th larvae” value in series [1] is 1.36 ± 0.18.

Take `C=C/C(C)=C/CC=C(C)C` [(E)-β-ocimene]: the “Slope (probit), adult” value in the series with R. ferrugineus adults amounted to 2.12 ± 0.23. In addition, the “Slope (probit), 4th larvae” value in series [1] turned out to be 1.12 ± 0.13.

Regarding `C=CCc1ccc(OC)cc1` [estragole], the “Slope (probit), adult” value in the series with R. ferrugineus adults is given as 2.04 ± 0.22. The “Slope (probit), 4th larvae” value in series [1] was 1.08 ± 0.12.

With `C=CCc1ccc(O)c(OC)c1` [eugenol], the “Slope (probit), adult” value in the series on R. ferrugineus adults turned out to be 2.66 ± 0.20. For the same compound, in series [1], the “Slope (probit), 4th larvae” value turned out to be 1.34 ± 0.19.

For the compound `C=C1/C=C/[C@H](C(C)C)CC/C(C)=C/CC1` [germacrene D], the “Slope (probit), adult” value with R. ferrugineus adults amounted to 2.48 ± 0.22. In addition, the “Slope (probit), 4th larvae” value in series [1] was determined as 1.20 ± 0.17.

On to `C=CC(C)(O)CCC=C(C)C` (centres unmarked) [linalool], for which, in the series on R. ferrugineus adults, the “Slope (probit), adult” value worked out at 2.71 ± 0.20. Moreover, the “Slope (probit), 4th larvae” value in series [1] is 1.37 ± 0.18.

Turning to `CC(C)=CCC/C(C)=C\CO` [nerol], the “Slope (probit), adult” value with R. ferrugineus adults was 2.51 ± 0.22. In addition, the “Slope (probit), 4th larvae” value in series [1] was found to be 1.31 ± 0.18.

As to `C=C(C)C1CCC(C)C2=C(C1)C(C)CC2` (stereo not drawn) [α-guaiene], the “Slope (probit), adult” value in the series on R. ferrugineus adults is 2.62 ± 0.21. Besides, the “Slope (probit), 4th larvae” value in series [1] is 1.24 ± 0.17.

In the case of `C=C1CCC2CC1C2(C)CCC=C(C)C` (stereo not drawn) [β-bergamotene], the “Slope (probit), adult” value with R. ferrugineus adults stood at 2.76 ± 0.21. Moreover, the “Slope (probit), 4th larvae” value in series [1] is listed as 1.28 ± 0.16.

As for `C=C1CC/C=C(\C)CC[C@@H]2[C@@H]1CC2(C)C` [β-caryophyllene], the “Slope (probit), adult” value in the series on R. ferrugineus adults turned out to be 2.60 ± 0.21. Further, the “Slope (probit), 4th larvae” value in series [1] was determined as 1.22 ± 0.17.

With `C=CC(=C)CCC=C(C)CCC=C(C)C` [β-farnesene], in the series with R. ferrugineus adults, the “Slope (probit), adult” value is on record as 2.73 ± 0.20. Further, the “Slope (probit), 4th larvae” value in series [1] amounted to 1.26 ± 0.17.

In the case of `C=C(C)C1CCC(C)(O)CC1` (stereo not drawn) [β-terpineol], the “Slope (probit), adult” value in the series with R. ferrugineus adults came to 1.94 ± 0.23. Further, in series [1], the “Slope (probit), 4th larvae” value was found to be 1.04 ± 0.11.

Take `CC1=CCC(C(C)C)=CC1` [γ-terpinene]: the “Slope (probit), adult” value in the series with R. ferrugineus adults was 1.97 ± 0.22. The “Slope (probit), 4th larvae” value in series [1] worked out at 1.07 ± 0.14.
